Some of the results follow.
Key:
Experiment in all cases: log2 fold change, soluble protein after heating vs DMSO (PISA); higher = thermal stabilisation; K562 cells, 10 uM, 30 min; active = over 0.2 and 3.5 SD of the protein, either way, in both replicates (recomputed)
[1] = compound: C1=CC=C(C=C1)[C@H](COC2=CC3=C(C=C2)NC(=O)N3)NC(=O)C4=CC=CN(C4=O)CC5=CC(=C(C=C5)F)F
How it was run: (§1)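 K562 cells at 2×10^6 cells/mL were exposed to 10 μM compound for 30 min, then aliquots were heated for 3 min across 48°C-58°C, pooled, and extracted in PBS containing 0.5% NP-40 at 4°C. The supernatant after 21,000xg for 90 min was taken as soluble protein and measured by TMTpro 16plex LC-MS/MS with channel sums equalised. Thermal stability is reported relative to control samples, with values from duplicates. Fold changes are given on a log2 scale.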

By UniProt entry, the sequences of proteins in these tests, tags left out. Where a name states a change or a piece, a line headed by the entry shows the natural chain unless it says otherwise.
UniProt Q9UKT4: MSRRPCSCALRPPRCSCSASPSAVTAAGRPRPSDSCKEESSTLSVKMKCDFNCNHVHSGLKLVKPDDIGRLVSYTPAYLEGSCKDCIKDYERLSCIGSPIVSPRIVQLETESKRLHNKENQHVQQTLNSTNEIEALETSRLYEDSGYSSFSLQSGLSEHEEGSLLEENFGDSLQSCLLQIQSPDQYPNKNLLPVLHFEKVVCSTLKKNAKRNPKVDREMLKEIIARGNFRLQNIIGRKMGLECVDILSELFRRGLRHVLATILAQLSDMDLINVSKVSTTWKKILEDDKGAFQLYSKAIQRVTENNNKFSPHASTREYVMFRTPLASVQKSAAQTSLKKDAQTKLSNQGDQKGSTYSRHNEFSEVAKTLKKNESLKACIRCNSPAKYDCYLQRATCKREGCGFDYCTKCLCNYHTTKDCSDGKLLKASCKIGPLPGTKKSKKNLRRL
UniProt P26885: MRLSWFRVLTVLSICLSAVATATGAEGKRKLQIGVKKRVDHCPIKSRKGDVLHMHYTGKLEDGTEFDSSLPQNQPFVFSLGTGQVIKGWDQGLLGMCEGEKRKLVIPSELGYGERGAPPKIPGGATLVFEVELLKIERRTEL
UniProt Q14318: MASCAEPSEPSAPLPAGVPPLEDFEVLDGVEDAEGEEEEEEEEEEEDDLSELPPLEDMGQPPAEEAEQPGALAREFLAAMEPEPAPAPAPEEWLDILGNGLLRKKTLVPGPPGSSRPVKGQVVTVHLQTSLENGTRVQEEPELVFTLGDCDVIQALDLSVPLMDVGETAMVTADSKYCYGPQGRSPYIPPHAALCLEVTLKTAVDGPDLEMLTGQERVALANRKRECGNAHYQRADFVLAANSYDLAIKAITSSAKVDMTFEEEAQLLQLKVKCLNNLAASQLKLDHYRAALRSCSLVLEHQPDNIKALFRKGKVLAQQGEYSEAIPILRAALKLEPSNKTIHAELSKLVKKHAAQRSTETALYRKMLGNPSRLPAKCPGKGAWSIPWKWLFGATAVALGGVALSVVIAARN
UniProt P23142: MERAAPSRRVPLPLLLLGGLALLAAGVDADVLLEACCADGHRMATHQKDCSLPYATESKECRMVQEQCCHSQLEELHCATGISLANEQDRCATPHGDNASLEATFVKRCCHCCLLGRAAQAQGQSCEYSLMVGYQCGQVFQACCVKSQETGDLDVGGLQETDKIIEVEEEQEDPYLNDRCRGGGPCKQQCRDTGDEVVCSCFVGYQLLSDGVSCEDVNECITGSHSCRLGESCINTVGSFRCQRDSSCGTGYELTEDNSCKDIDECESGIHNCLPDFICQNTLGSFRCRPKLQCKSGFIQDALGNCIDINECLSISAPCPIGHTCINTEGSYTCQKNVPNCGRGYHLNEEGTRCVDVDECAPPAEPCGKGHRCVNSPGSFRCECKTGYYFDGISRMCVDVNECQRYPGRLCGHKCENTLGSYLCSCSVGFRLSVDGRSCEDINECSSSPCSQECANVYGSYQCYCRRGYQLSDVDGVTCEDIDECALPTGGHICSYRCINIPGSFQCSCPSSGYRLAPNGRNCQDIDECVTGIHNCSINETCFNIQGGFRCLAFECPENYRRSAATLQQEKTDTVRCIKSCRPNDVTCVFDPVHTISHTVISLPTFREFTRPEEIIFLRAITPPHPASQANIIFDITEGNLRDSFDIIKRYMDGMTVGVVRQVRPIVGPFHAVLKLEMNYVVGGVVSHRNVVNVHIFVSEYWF
UniProt Q6PIJ6: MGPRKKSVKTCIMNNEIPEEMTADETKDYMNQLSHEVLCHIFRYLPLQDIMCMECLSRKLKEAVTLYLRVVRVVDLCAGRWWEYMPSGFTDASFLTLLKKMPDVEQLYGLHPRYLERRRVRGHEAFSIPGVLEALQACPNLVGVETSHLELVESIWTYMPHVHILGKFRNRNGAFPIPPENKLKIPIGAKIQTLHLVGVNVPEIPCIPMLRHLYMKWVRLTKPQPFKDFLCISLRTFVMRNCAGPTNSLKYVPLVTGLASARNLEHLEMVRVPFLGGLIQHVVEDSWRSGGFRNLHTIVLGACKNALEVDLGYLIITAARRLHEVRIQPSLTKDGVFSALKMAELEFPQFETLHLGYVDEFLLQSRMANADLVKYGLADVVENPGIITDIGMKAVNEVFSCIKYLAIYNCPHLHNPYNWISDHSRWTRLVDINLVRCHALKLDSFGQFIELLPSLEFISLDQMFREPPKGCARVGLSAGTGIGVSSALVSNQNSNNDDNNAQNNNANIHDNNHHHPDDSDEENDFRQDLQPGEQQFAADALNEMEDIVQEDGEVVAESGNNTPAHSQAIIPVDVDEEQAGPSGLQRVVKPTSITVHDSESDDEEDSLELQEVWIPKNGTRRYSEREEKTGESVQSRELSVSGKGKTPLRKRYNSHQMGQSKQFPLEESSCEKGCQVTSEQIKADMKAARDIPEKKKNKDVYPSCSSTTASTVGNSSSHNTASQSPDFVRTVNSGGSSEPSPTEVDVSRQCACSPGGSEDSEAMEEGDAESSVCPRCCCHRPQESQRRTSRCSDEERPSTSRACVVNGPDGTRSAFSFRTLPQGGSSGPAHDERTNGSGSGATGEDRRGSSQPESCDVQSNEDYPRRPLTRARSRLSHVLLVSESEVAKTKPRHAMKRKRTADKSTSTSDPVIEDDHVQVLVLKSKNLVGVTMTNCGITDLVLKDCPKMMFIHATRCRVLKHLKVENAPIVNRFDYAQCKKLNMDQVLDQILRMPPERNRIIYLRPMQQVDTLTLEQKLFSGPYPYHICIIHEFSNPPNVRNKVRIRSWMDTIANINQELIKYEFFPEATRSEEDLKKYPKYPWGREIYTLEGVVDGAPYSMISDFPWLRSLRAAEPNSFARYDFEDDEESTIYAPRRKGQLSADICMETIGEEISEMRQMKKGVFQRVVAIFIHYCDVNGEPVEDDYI
UniProt Q53R41: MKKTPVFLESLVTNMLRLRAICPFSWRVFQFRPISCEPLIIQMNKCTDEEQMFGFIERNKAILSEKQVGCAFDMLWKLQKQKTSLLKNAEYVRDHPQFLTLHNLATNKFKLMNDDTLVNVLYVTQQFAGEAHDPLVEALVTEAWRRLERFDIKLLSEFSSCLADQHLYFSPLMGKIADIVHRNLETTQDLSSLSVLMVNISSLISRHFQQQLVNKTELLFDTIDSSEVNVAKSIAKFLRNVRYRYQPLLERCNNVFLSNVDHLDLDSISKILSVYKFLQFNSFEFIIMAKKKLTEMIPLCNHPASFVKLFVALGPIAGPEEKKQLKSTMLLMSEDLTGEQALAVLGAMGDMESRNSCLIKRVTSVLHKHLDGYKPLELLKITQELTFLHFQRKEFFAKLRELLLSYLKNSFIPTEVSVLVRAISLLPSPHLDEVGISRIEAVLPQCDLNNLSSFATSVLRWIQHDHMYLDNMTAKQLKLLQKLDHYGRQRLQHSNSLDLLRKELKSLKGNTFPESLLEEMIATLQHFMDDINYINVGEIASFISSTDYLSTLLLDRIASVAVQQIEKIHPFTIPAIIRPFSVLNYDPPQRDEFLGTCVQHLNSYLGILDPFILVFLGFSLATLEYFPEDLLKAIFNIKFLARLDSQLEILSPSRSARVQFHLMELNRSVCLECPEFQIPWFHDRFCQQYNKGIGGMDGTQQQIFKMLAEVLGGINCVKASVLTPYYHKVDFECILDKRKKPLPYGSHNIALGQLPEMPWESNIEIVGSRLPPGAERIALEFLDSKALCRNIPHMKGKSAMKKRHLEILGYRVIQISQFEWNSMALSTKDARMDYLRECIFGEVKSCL
UniProt O75955: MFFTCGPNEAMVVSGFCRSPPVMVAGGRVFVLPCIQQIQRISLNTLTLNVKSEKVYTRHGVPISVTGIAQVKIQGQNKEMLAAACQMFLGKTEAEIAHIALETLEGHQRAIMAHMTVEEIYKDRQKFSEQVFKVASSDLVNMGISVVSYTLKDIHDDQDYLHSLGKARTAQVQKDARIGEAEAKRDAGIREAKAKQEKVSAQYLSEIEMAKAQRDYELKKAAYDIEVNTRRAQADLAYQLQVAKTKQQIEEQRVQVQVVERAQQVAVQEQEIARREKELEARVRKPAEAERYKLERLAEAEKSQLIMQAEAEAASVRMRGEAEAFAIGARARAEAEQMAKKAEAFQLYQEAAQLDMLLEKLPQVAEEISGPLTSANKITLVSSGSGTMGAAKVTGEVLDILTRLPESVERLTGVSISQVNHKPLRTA
UniProt Q9Y3D6: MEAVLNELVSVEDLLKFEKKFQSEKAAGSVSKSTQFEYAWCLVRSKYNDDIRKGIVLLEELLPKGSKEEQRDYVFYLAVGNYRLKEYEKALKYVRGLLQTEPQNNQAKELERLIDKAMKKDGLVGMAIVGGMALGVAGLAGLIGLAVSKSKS
UniProt P09038, whole entry, looked up: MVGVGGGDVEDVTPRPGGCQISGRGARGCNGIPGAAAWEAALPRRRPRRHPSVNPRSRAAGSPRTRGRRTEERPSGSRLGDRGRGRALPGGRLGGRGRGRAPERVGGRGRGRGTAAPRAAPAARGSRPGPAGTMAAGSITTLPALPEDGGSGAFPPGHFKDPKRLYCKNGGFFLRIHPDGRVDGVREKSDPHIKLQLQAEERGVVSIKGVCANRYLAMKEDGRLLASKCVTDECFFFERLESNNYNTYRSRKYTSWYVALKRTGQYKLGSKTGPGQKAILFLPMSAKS
UniProt P14324: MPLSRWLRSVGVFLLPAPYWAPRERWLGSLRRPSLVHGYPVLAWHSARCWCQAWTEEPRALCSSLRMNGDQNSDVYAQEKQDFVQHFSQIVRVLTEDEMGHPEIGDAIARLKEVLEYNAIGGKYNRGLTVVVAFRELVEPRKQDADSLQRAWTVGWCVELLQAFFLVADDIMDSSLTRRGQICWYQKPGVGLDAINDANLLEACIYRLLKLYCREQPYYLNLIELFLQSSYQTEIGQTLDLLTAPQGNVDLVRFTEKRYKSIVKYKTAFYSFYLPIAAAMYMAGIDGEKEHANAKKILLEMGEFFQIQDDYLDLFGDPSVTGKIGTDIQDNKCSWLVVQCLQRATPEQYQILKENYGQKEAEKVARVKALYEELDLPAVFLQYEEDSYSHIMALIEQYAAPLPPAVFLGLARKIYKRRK
UniProt Q8TB52: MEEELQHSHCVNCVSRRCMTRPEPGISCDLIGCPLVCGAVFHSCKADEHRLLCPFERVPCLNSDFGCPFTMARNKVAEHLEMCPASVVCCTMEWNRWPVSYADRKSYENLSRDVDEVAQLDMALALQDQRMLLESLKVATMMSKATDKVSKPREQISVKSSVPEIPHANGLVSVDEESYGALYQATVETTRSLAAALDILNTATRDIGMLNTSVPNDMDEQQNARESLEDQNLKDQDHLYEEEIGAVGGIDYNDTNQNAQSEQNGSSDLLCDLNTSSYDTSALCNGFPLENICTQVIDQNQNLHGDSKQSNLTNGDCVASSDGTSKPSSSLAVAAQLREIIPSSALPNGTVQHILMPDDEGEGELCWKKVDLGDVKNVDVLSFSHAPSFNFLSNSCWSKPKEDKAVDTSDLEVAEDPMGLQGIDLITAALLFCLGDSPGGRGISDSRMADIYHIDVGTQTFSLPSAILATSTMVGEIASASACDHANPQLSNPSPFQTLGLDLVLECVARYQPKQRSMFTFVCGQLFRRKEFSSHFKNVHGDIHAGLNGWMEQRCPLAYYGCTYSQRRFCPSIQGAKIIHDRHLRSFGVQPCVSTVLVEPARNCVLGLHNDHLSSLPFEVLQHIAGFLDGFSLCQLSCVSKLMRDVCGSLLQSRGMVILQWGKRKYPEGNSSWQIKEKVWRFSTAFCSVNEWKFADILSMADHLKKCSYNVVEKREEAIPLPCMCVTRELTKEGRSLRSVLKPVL
UniProt Q5T0N5: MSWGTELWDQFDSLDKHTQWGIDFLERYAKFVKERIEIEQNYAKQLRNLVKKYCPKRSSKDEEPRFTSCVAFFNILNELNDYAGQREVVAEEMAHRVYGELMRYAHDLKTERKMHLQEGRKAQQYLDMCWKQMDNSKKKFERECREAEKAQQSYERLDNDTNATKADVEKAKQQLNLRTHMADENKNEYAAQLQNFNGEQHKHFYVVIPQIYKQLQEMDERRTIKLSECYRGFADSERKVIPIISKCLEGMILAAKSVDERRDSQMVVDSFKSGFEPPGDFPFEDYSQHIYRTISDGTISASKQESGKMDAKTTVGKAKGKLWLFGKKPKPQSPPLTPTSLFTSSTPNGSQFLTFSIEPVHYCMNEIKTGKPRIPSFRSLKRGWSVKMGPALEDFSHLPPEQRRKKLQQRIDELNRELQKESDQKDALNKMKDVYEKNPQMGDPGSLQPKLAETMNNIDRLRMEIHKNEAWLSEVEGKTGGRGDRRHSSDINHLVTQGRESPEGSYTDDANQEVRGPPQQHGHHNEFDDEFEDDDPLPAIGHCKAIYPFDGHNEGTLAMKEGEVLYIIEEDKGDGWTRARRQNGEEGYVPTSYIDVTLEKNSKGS
UniProt P10109: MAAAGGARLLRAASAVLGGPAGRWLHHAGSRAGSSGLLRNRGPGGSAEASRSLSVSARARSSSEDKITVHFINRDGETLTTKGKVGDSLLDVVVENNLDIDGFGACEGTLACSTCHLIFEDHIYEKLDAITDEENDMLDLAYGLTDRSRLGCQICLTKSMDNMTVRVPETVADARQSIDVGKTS

[2] = compound: CC1=C(SC2=C1C(=N[C@H](C3=NN=C(N32)C)CC(=O)N)C4=CC=C(C=C4)Cl)C
How it was run: as §1

[3] = compound: CC1=C2C(=CC=C1)N=C(N(C2=O)C3=CC=CC=C3C)CN4C=NC5=C(N=CN=C54)N
How it was run: as §1

[4] = compound: Cc1sc2c(c1C)C(c1ccc(Cl)cc1)=N[C@@H](CC(=O)OC(C)(C)C)c1nnc(C)n1-2
How it was run: as §1

[5] = compound: c1ccc([C@@H]2C[C@H]2NC2CCNCC2)cc1
How it was run: as §1

Measured: log2 fold change

FASTKD5 (UniProt Q7L8L6)
inactive: [1] -0.32 | [2] 0.014 | [3] 0.105 | [4] -0.122 | [5] 0.155

FIP1L1 (UniProt Q6UN15)
inactive: [1] 0.045 | [2] -0.073 | [3] -0.017 | [4] 0.064 | [5] 0.076

FBXO5 (UniProt Q9UKT4)
inactive: [1] -0.027 | [2] 0.002 | [3] 0.02 | [4] -0.019 | [5] 0.002

FHL1 isoform 4 (UniProt Q13642)
inactive: [1] -0.161 | [2] -0.02 | [3] -0.001 | [4] -0.039 | [5] 0.09

FLT4 (UniProt P35916)
inactive: [1] -0.056 | [2] -0.019 | [3] 0.037 | [4] -0.061 | [5] -0.112

FAU (UniProt P62861)
inactive: [1] 0.13 | [2] -0.33 | [3] -0.273 | [4] 0.12 | [5] -0.001

FLAD1 (UniProt Q8NFF5)
inactive: [1] 0.044 | [2] 0.159 | [3] 0.089 | [4] 0.028 | [5] -0.056

FAT2 (UniProt Q9NYQ8)
active: [2] 0.669
inactive: [1] -0.092 | [3] 0.163 | [4] -0.091 | [5] -0.218

FKBP2 (UniProt P26885)
inactive: [1] 0.042 | [2] 0.027 | [3] 0.072 | [4] -0.041 | [5] -0.018

FARSA (UniProt Q9Y285)
inactive: [1] -0.021 | [2] 0.035 | [3] 0.062 | [4] 0.012 | [5] -0.04

FKBP15 (UniProt Q5T1M5)
inactive: [1] -0.006 | [2] 0.02 | [3] 0.106 | [4] 0.013 | [5] -0.027

FBXO7 (UniProt Q9Y3I1)
inactive: [1] -0.002 | [2] 0.033 | [3] 0.045 | [4] -0.033 | [5] 0.024

FKBP8 isoform 2 (UniProt Q14318)
inactive: [1] 0.015 | [2] -0.075 | [3] 0.009 | [4] 0 | [5] -0.027

FBXO42 (UniProt Q6P3S6)
inactive: [1] -0.022 | [2] 0.017 | [3] 0.094 | [4] 0.141 | [5] 0.077

FAM20B (UniProt O75063)
inactive: [1] 0.056 | [2] 0.048 | [3] 0.058 | [4] -0.007 | [5] -0.024

FLOT2 (UniProt Q14254)
inactive: [1] 0.047 | [2] -0.128 | [3] -0.028 | [4] -0.038 | [5] -0.079

FCSK isoform 2 (UniProt Q8N0W3)
inactive: [1] -0.04 | [2] 0.002 | [3] 0.017 | [4] 0.009 | [5] 0.03

FGFR1OP2 (UniProt Q9NVK5)
inactive: [1] 0.022 | [2] 0.006 | [3] 0.091 | [4] 0.079 | [5] -0.028

FAM241A (UniProt Q8N8J7)
inactive: [1] -0.046 | [2] 0.034 | [3] 0.041 | [4] 0 | [5] 0.008

FHOD1 (UniProt Q9Y613)
inactive: [1] -0.033 | [2] -0.065 | [3] 0.086 | [5] -0.034

FGGY isoform 3 (UniProt Q96C11)
inactive: [1] -0.057 | [2] -0.159 | [3] -0.078 | [4] -0.257 | [5] 0.244

FEZ2 isoform 2 (UniProt Q9UHY8)
inactive: [1] 0.081 | [2] 0.031 | [3] 0.148 | [5] 0.113

FAM98B (UniProt Q52LJ0)
inactive: [1] 0.027 | [2] 0.008 | [3] -0.082 | [4] 0.045 | [5] -0.117

FAM234A (UniProt Q9H0X4)
inactive: [1] 0.03 | [2] 0.118 | [3] -0.031 | [4] -0.019 | [5] -0.046

FBLN1 (UniProt P23142)
inactive: [1] -0.069 | [2] -0.026 | [3] 0.045 | [4] -0.021 | [5] 0.128

FBXO38 (UniProt Q6PIJ6)
inactive: [1] 0.019 | [2] 0.014 | [3] 0.105 | [4] 0.024 | [5] 0.033

FGFR1OP (UniProt O95684)
inactive: [1] -0.005 | [2] 0.016 | [3] 0.064 | [4] 0.038 | [5] -0.028

FASTKD1 (UniProt Q53R41)
inactive: [1] -0.038 | [2] 0.151 | [3] 0.013 | [4] 0.204 | [5] 0.07

FAM91A1 (UniProt Q658Y4)
inactive: [1] 0 | [2] 0.04 | [3] 0.028 | [4] 0.013 | [5] -0.043

FLOT1 (UniProt O75955)
inactive: [1] 0.064 | [2] -0.219 | [3] 0.045 | [4] -0.167 | [5] -0.137

FAT1 (UniProt Q14517)
inactive: [1] -0.059 | [2] -0.038 | [3] 0.126 | [4] -0.071 | [5] 0.155

FEN1 (UniProt P39748)
inactive: [1] -0.198 | [2] 0.097 | [3] 0.157 | [4] -0.009 | [5] -0.043

FIS1 (UniProt Q9Y3D6)
inactive: [1] 0.047 | [2] 0.021 | [3] 0.035 | [4] -0.081 | [5] -0.011

FKBP9 (UniProt O95302)
inactive: [1] 0.038 | [2] 0.015 | [3] 0.026 | [4] 0.025 | [5] -0.041

FAM210A (UniProt Q96ND0)
inactive: [1] 0.053 | [2] 0.068 | [3] -0.075 | [4] -0.058 | [5] 0.075

FIBP (UniProt O43427)
inactive: [1] 0.091 | [2] 0.152 | [3] 0.042 | [4] -0.105 | [5] -0.011

FAM32A (UniProt Q9Y421)
inactive: [1] 0 | [2] -0.15 | [3] 0.024 | [4] 0.021 | [5] 0.037

FGF2 (UniProt P09038)
inactive: [1] -0.019 | [2] -0.019 | [3] -0.016 | [4] 0.072 | [5] 0.015

FHL2 (UniProt Q14192)
inactive: [1] 0.026 | [2] -0.007 | [3] 0.006 | [4] 0.017 | [5] 0.056

FBXL12 (UniProt Q9NXK8)
inactive: [1] -0.048 | [2] 0.144 | [3] 0.068 | [4] 0.085 | [5] -0.124

FARSB (UniProt Q9NSD9)
inactive: [1] -0.017 | [2] 0.021 | [3] 0.028 | [4] 0.019 | [5] -0.005

FDXR isoform 7 (UniProt P22570)
inactive: [1] -0.069 | [2] 0.106 | [3] 0.038 | [4] -0.037 | [5] -0.01

FN3KRP (UniProt Q9HA64)
inactive: [1] 0.025 | [2] 0.016 | [3] 0.024 | [4] -0.011 | [5] 0.044

FBXO3 (UniProt Q9UK99)
inactive: [1] 0.006 | [2] -0.03 | [3] 0.033 | [4] 0.055 | [5] 0.127

FDPS (UniProt P14324)
inactive: [1] -0.328 | [2] 0.063 | [3] 0.143 | [4] 0.001 | [5] -0.121

FN1 isoform 1 (UniProt P02751)
inactive: [1] -0.076 | [2] 0.018 | [3] 0.002 | [4] -0.018 | [5] 0.033

FBXO6 (UniProt Q9NRD1)
inactive: [1] 0.013 | [2] 0.087 | [3] 0.041 | [4] -0.041 | [5] -0.032

FBXO30 (UniProt Q8TB52)
inactive: [1] -0.043 | [2] 0.074 | [3] 0.12 | [4] -0.017 | [5] -0.068

FMC1 (UniProt Q96HJ9)
inactive: [1] 0.009 | [2] 0.06 | [3] 0.044 | [4] 0 | [5] -0.002

FNBP1L (UniProt Q5T0N5)
inactive: [1] 0.003 | [2] 0.039 | [3] -0.034 | [4] 0 | [5] -0.029

FDX1 (UniProt P10109)
inactive: [1] -0.046 | [2] -0.042 | [3] -0.021 | [4] 0.012 | [5] -0.002

Quoted from the entries so far (12 entries):
FAM32A (UniProt Q9Y421)
inactive: [1] 0 | [2] -0.15 | [3] 0.024 | [4] 0.021 | [5] 0.037

FGF2 (UniProt P09038)
inactive: [1] -0.019 | [2] -0.019 | [3] -0.016 | [4] 0.072 | [5] 0.015

FHL2 (UniProt Q14192)
inactive: [1] 0.026 | [2] -0.007 | [3] 0.006 | [4] 0.017 | [5] 0.056

FBXL12 (UniProt Q9NXK8)
inactive: [1] -0.048 | [2] 0.144 | [3] 0.068 | [4] 0.085 | [5] -0.124

FARSB (UniProt Q9NSD9)
inactive: [1] -0.017 | [2] 0.021 | [3] 0.028 | [4] 0.019 | [5] -0.005

FDXR isoform 7 (UniProt P22570)
inactive: [1] -0.069 | [2] 0.106 | [3] 0.038 | [4] -0.037 | [5] -0.01

FN3KRP (UniProt Q9HA64)
inactive: [1] 0.025 | [2] 0.016 | [3] 0.024 | [4] -0.011 | [5] 0.044

FBXO3 (UniProt Q9UK99)
inactive: [1] 0.006 | [2] -0.03 | [3] 0.033 | [4] 0.055 | [5] 0.127

FDPS (UniProt P14324)
inactive: [1] -0.328 | [2] 0.063 | [3] 0.143 | [4] 0.001 | [5] -0.121

FN1 isoform 1 (UniProt P02751)
inactive: [1] -0.076 | [2] 0.018 | [3] 0.002 | [4] -0.018 | [5] 0.033

FBXO6 (UniProt Q9NRD1)
inactive: [1] 0.013 | [2] 0.087 | [3] 0.041 | [4] -0.041 | [5] -0.032

FBXO30 (UniProt Q8TB52)
inactive: [1] -0.043 | [2] 0.074 | [3] 0.12 | [4] -0.017 | [5] -0.068

(next part)

FKBP7 (UniProt Q9Y680)
inactive: [1] -0.027 | [2] 0.005 | [3] 0.091 | [4] 0.009 | [5] 0.102

FLII (UniProt Q13045)
inactive: [1] -0.013 | [2] -0.005 | [3] 0.052 | [4] 0.034 | [5] -0.022

From the supplement of paper PMC10849652
